Values quoted from earlier work, collected in patent US20220338769A1, “METHODS AND APPARATUS FOR SUBSTANCE DELIVERY IN AN IMPLANTABLE DEVICE” (GlySens Incorporated, priority 2021, published 2022).
At least one compound was matched to its structure with a doubt left.

System: cortisol suppression
Details: and greater; cited from earlier work

C[C@@H]1C[C@H]2[C@@H]3CCC4=CC(=O)C=C[C@]4(C)[C@@]3(F)[C@@H](O)C[C@]2(C)[C@@]1(O)C(=O)CO [dexamethasone]
serum levels correlated with cortisol suppression: 130 to 200 ng/dL
